Reference: paper PMC3832373
No constants are given. Whether binding was seen depends on the method and setting. Binding seen in cells or lysates may run through a third protein. Some binding calls cover weakened binding; strength is not graded here.

The chains behind the UniProt entries cited, without tags or fusion partners.
UniProt O97758: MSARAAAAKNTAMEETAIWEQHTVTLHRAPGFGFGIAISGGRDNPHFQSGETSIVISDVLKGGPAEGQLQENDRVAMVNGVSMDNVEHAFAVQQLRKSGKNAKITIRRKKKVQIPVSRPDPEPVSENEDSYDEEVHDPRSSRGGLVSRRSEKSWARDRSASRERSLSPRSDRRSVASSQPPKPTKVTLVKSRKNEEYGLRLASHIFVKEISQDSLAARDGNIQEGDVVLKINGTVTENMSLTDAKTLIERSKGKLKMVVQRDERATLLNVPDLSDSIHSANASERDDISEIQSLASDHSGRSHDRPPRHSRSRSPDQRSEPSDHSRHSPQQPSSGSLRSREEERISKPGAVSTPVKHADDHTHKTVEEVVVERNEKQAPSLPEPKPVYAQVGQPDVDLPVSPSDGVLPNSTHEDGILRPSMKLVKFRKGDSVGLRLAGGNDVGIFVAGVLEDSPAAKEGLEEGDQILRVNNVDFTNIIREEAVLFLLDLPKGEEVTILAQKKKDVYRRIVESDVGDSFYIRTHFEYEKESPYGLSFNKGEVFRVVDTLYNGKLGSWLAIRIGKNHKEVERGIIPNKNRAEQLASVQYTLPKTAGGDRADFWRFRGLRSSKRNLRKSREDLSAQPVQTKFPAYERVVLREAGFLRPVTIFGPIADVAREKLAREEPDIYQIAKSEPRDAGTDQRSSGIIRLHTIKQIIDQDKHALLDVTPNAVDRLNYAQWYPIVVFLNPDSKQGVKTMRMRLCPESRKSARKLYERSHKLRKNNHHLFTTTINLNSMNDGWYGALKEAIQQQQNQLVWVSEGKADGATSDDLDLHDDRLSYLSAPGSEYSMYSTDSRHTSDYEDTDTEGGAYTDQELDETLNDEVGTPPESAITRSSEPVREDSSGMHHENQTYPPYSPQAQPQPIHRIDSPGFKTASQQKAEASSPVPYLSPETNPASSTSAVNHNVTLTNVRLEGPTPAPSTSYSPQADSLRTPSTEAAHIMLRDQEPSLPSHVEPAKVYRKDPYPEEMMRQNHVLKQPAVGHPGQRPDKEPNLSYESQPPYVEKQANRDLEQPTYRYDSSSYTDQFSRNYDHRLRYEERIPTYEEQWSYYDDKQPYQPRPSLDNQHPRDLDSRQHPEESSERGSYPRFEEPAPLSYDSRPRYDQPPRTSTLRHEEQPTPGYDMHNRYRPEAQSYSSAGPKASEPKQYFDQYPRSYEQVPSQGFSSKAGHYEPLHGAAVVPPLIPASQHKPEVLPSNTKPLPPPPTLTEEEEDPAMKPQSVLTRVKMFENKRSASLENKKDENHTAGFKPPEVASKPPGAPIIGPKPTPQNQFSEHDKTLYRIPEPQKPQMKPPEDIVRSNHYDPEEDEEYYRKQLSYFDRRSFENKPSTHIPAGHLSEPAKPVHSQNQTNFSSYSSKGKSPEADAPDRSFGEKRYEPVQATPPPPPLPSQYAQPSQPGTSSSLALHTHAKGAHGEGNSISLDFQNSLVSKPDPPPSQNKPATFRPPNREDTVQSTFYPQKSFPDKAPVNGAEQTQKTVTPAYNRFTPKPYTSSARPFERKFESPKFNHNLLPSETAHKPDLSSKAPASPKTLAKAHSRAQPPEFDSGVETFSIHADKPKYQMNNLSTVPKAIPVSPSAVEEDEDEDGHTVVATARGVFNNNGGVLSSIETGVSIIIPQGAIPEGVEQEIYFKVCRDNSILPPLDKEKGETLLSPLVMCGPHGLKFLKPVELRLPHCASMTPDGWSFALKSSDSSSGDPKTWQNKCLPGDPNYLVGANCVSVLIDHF

Experiments:
[1] = target: zonula occludens-1 (dog (endogenous in MDCK)) (UniProt O97758); test: condition: only lysed with 1% SDS, without cross-linker; co-sedimentation; control MDCK monolayer without dithiobis(succinimidyl propionate) treatment, lysed in cosedimentation buffer containing 1% SDS; sucrose gradient centrifugation; fractions immunoblotted
[2] = target: claudin-1 (dog (endogenous in MDCK)); test: co-sedimentation; MDCK monolayers (ethanol control or 300 µM capsaicin, 1 h) cross-linked with 100 µg/ml dithiobis(succinimidyl propionate), lysed in 0.5% Nonidet P-40, 0.25% Triton X-100; velocity centrifugation on a discontinuous 5-25% sucrose gradient, 200,000×g, 18 h, 4°C; fractions immunoblotted
[3] = target: zonula occludens-1 (dog (endogenous in MDCK)) (UniProt O97758); test: as above

binding [1]: no binding
binding [2]: binds
binding [3]: binds
B1: occludin (protein, UniProt Q28269 1-521)
chain: MSSRPFESPPPYRPDEFKPNHYAPSNDVYGGDMHVRPMLSQPAYSFYPEDEILHFYKWTSPPGVIRILSMLVIVMCIAIFGCVASTLAWDRGYGTGLMGGSIGYPYGSGFGSYGTGYGYGFGYGYGYGGYTDPRAAKGFLLAMVAFCFIAALVIFVTSVIRSDISRTRRYYLTVIILSAFLGVMMFIATIVYIMGVNPTAQASGSLYSSQIYAMCNQFYASTATGLYMDQYLYHYCVVDPQEAIAIVLGFMVIVAFALIIFFAVKTRRKMDRYDKSNILWDKEHIYDEQPPNVEEWVKNVSAGTQDMPPPPSDYVERVDSPMAYSSNGKVNDKRLYPESSYKSTPVPEVVQELPATSPADDFRQPRYSSSGHLEPPSKRAPSKGRTGRPKRLEQDHYETDYTTGGESCDELEEDWIREYPPITSDQQRQLYKRNFDTGLQEYKSLQAELDEINKELSRLDKELDDYREESEEYMAAADEYNRLKQVKGSPDYKNKRNYCKQLKSKLSHIKKMVGDYDRQKT
